Experimental data as given in PubChem BioAssay AID1259354 (Paczesny and Yang Labs, IUPUI and University of Michigan, 2018).
Out of some 78,000 compounds screened, about 1,800 (2.3%) were called active. The inconclusive results got no clear call from the source; some entries with a clear call stand among them for comparison. Rule as the data show it: active = inhibition above about 30%; inconclusive = mostly about 10% to 28%; inactive = weaker than that.

Chains of the proteins cited; added tags and fusions are not shown. Lines headed by an entry give the natural chain unless they say otherwise; changes in a name come on top.
UniProt Q01638: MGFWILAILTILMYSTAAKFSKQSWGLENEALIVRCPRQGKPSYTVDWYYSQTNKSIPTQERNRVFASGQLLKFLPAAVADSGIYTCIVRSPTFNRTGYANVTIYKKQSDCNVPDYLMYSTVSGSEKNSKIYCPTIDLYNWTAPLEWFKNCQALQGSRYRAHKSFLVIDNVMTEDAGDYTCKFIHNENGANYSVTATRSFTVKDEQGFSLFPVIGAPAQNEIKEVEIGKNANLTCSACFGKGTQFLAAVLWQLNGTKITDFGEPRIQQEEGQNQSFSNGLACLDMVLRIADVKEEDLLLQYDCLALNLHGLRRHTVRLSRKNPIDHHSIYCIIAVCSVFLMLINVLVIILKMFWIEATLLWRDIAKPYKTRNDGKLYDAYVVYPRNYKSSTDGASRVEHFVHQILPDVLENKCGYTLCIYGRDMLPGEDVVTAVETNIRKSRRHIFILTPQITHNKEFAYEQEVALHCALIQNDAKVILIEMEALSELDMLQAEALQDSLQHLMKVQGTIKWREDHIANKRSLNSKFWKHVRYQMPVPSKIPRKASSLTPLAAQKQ

Biological target: Interleukin-1 receptor-like 1 (Homo sapiens) (UniProt Q01638)
Test: blocks human ST2 binding to IL-33, primary screen, biochemical, AlphaLISA (AID 1259354)
Details: AlphaLISA ST2-Fc/biotin-IL-33 interaction, 1 h; at 17 µM, stronger effect = higher value

SMILES	inhibition
Cc1ccc(S(=O)(=O)N(CC(=O)NCC2CCCO2)Cc2c(F)cccc2Cl)cc1 (configuration not stated)	inactive
Cc1cccn2c(CNC(C)CCn3cccn3)cnc12 (configuration not stated)	inactive
COc1ccccc1NC(=O)c1cc2ccccc2oc1=Nc1ccccc1F	inconclusive: 19%
Cc1c(C(=O)NCCc2nc(-c3ccccc3)cs2)oc2c(F)cccc12	inconclusive: 14%
COc1ncccc1-c1ccc(C(=O)C(C)C)s1	inconclusive: 16%
O=C(Cc1ccc(F)cc1)N1CCN=C1SCc1ccccc1Cl	inactive
Cc1c(C(C)NC(=O)c2ccc(Oc3ccccc3)o2)cnn1-c1ccccc1 (configuration not stated)	inconclusive: 18%
CN(C)CCNC(=O)CCC1=NS(=O)(=O)c2ccccc2N1	inconclusive: 11%
CC(=O)Nc1ncc(C(=O)N2Cc3cnc(CC(C)C)nc3C2)s1	inactive
O=C(CNS(=O)(=O)c1cccs1)Nc1ccc(F)cc1	inactive
Cc1cccn2c(=O)c3cc(C(=O)NCCc4ccccc4)c(=N)n(C(C)C)c3nc12	inconclusive: 25%
O=C(c1ccc(-n2ccnc2)cc1)N1CC(c2ccccn2)C1	inconclusive: 21%
c1ccc(-c2ccccc2-n2cnnc2)cc1	inactive
Cc1ccc(CN2CCN(C(=O)C3CCC(O)CC3)C(C)C2=O)cc1 (configuration not stated)	inconclusive: 15%
O=S(=O)(NC[C@H]1O[C@@H](CO)[C@@H](O)[C@H]1N1CCN(c2cccc(C(F)(F)F)c2)CC1)c1cccs1	inconclusive: 18%
O=C(Cn1cnc2c(oc3ccccc32)c1=O)Nc1ccccc1F	inconclusive: 17%
CCN(CC)CCCNC(=O)c1cc(-c2ccc(Cl)c(Cl)c2)on1	inconclusive: 16%
COc1nc(-c2ccccc2)cc(-c2ccccc2)c1C#N	inactive
O=C(c1ccccc1[N+](=O)[O-])N1CCN(c2ccc(Cl)cc2)CC1	inconclusive: 13%
COc1ccc(Nc2c(-c3ccc(OC)cc3)nc3cnccn23)cc1	inconclusive: 18%
CN(C)/C=C/c1c(C#N)c2ncnc(-c3ccccc3)c2n1Cc1ccccc1	inactive
CCOc1ccc(C(=O)N2CCN(c3ccc([N+](=O)[O-])cc3)CC2)cc1Cl	inconclusive: 14%
CC1(C)CC(=O)C2=C(C1)Nc1cc(C(=O)c3ccccc3)ccc1NC2c1cccc(O)c1 (configuration not stated)	inconclusive: 24%

SMILES	inhibition
O=C(c1cccc(F)c1)N(c1ccc(Br)cc1)C1C=CS(=O)(=O)C1 (configuration not stated)	inactive
CCCN(CCC)S(=O)(=O)c1ccc(C(=O)Nc2nnc(-c3ccc(Cl)s3)o2)cc1	inconclusive: 10%
O=C(CC(c1ccccc1)C1([N+](=O)[O-])C(=O)c2ccccc2C1=O)c1ccccc1 (configuration not stated)	inconclusive: 14%
Cc1cc(N2C[C@H](O)[C@@H](N3CCCCC3)C2)nc(-c2ccccc2)n1	inconclusive: 11%
CCSc1nc(CC(=O)NCc2cc(CC)no2)cs1	inactive
COc1ccccc1/C=C/C=C1\N=C(c2ccc(OC)c([N+](=O)[O-])c2)OC1=O	inconclusive: 19%
CCCCCCCCCCCc1cc(=O)c2ccccc2n1C	inactive
COCCCN1C(=O)CC(CC(=O)N2CCCCC2c2nccn2C)(c2ccccc2Cl)C1=O (configuration not stated)	inconclusive: 19%
O=C(Nc1ccc(-n2cccn2)cc1)C1CCCCN1Cc1cc2ccccc2[nH]1 (configuration not stated)	inactive
Cc1nc(-c2cccc(S(=O)(=O)N3CCCC4(CCNC4)C3)c2)no1 (configuration not stated)	inactive
NC(=O)CC1Nc2ccccc2NC1=O (configuration not stated)	inconclusive: 26%
CSCCC1CC(=O)Nc2n[nH]c(C3CCC3)c21 (configuration not stated)	inactive
C#CCNC(=O)CC[C@H]1CNC(=O)[C@@H]2[C@@H](CCN2Cc2cccc(OC(F)(F)F)c2)N1C	inconclusive: 11%
O=C(CNS(=O)(=O)c1cccs1)NCCN1CCCc2ccccc21	inconclusive: 13%
Oc1c(C=Nc2ccccc2Br)[nH]c2ccc(Br)c(Cl)c12	inconclusive: 21%
O=C1[C@@H]2[C@H](C(=O)N1c1cccc(Cl)c1)[C@H]1C=C[C@@H]2C1=C1CCCC1	inactive
CN1CC2(CCN(C(=O)c3cc4c(C(F)(F)F)nn(C)c4s3)C2)OC1=O (configuration not stated)	inconclusive: 16%
COc1ccc(Nc2cc(C)nc(N3CCN(S(=O)(=O)c4cc(C(C)C)ccc4C)CC3)n2)cc1	inconclusive: 21%
Cc1[nH]nc(SCC(=O)Nc2ccc(F)c(Cl)c2)c1[N+](=O)[O-]	inconclusive: 13%
Cc1c(NC(=O)CN2C(=O)c3ccc([N+](=O)[O-])cc3C2=O)cccc1C(=O)O	inconclusive: 23%
O=C1/C(=c2\sc3nc4ccccc4n3c2=O)c2ccccc2N1Cc1ccccc1	inconclusive: 26%
Cc1cc(C)n(S(=O)(=O)c2cc(C)c(Cl)cc2Cl)n1	inactive
CC1=C(C(=O)OC2CCCCC2)C(c2cccc(Br)c2)n2nnnc2N1 (configuration not stated)	inactive

Quoted from the listing:
Entry of `O=C(c1cccc(F)c1)N(c1ccc(Br)cc1)C1C=CS(=O)(=O)C1` (configuration not stated) under inhibition: inactive
Entry of `COCCCN1C(=O)CC(CC(=O)N2CCCCC2c2nccn2C)(c2ccccc2Cl)C1=O` (configuration not stated) under inhibition: inconclusive: 19%
Entry of `O=C1/C(=c2\sc3nc4ccccc4n3c2=O)c2ccccc2N1Cc1ccccc1` under inhibition: inconclusive: 26%
Entry of `Cc1nc(-c2cccc(S(=O)(=O)N3CCCC4(CCNC4)C3)c2)no1` (configuration not stated) under inhibition: inactive
Entry of `CSCCC1CC(=O)Nc2n[nH]c(C3CCC3)c21` (configuration not stated) under inhibition: inactive

Next part.

SMILES	inhibition
O=C(O)c1cc(-c2cccnc2)cc(S(=O)(=O)N2CCCCCC2)c1	inactive
COCCOC(=O)C1=C(N)OC2=C(C(=O)CC(C)(C)C2)C1c1ccc(Br)cc1 (configuration not stated)	inconclusive: 10%
Cc1ccc(-c2nc3ccccn3c2Nc2ccc(F)cc2)o1	inconclusive: 16%
COc1c(F)ccc(C(=O)N2C[C@H](N)C[C@H]2C(=O)NC(C)C)c1F	inactive
O=C(NCCS(=O)(=O)N1CCCC1)c1cccc(Cn2cccn2)c1	inconclusive: 19%
CCCCNc1ncnc2c1[nH]c1ccc(OC)cc12	inactive
CC1=NN(c2ccccc2)C(=O)/C1=C\c1ccc(-c2ccc(Cl)c(C(=O)O)c2)o1	inconclusive: 25%
Cc1[nH]c2ccccc2c1CN1CCC(Cc2ccccc2)CC1	inconclusive: 19%
CN1CC2(CCN(C(=O)c3cnc(-c4cccnc4)nc3)C2)OC1=O (configuration not stated)	inconclusive: 15%
c1cncc(OCCCNc2nc(-c3ccncc3)nc3c2CCNC3)c1	inactive
CCc1cc(C(=O)N(CCN2CCCCC2)CC2CCCN(C3CCCC3)C2)n(C)n1 (configuration not stated)	inconclusive: 12%
COc1ccc(C(=O)N[C@@H]2CN(C(=O)NC(C)C)CCC[C@H]2O)cc1	inconclusive: 18%
CCCCc1nc(Cl)c(CN2CCCN3CCC[C@H]3C2)[nH]1	inconclusive: 13%
COc1ccc(C(=O)NCCc2nc3ccccc3[nH]2)cc1OC	inconclusive: 21%
COc1cc(CN2CCN(c3ccc(C)cc3)CC2)cc([N+](=O)[O-])c1O	inconclusive: 15%
O=C(CSc1nc2c(c(=O)n1-c1ccccc1)SCC2)Nc1cccc(C(F)(F)F)c1	inconclusive: 26%
CCSc1nc2c(c(=O)[nH]1)C(c1cccc(O)c1)C1=C(CCCC1=O)N2 (configuration not stated)	inactive
Cc1cc(C)n2nc(CC(=O)N(Cc3sccc3C)C3CC3)nc2n1	inactive
O=C(N[C@H]1CO[C@H]2[C@@H]1OC[C@@H]2Nc1nccc(-c2ccc(-c3ccccc3)cc2)n1)c1ccc(C(F)(F)F)cc1	inconclusive: 16%
N#Cc1c(C(F)(F)F)cc(-c2ccc(Cl)cc2)nc1SCC(=O)O	inconclusive: 14%
COc1ccc(C2=C/C(=C/c3cc(OC)c(OC)c(OC)c3)C(=O)O2)c(OC)c1	inconclusive: 12%
COC(=O)c1c(C)oc2cc(Br)c(OC(=O)c3ccccc3)cc12	inactive
CN(Cc1ccccc1)Cc1nc2c(c(=O)n(C)c(=O)n2C)n1Cc1ccc(Cl)cc1Cl	inactive

SMILES	inhibition
Cc1cccc(C)c1NC(=O)c1nccnc1C(=O)O	inconclusive: 19%
COc1cccc(C2CCN2Cc2c(C)n(CC(N)=O)c3ccccc23)c1 (configuration not stated)	inactive
CN1CCN(S(=O)(=O)c2cc(C(=O)O)cc(-c3cccnc3)c2)CC1	inconclusive: 11%
CCOC(=O)C1(CCOc2ccccc2)CCN(Cc2cccc(C)n2)CC1	active: 83%
Cc1cccc(=O)n1CCC(=O)N1CCC2(CC1)c1ccccc1[C@@H](N)[C@@H]2O	inactive
Cc1ccc(S(=O)(=O)n2nnc3ccccc32)cc1	inconclusive: 15%
Cc1cc(N2CCC(C)CC2)nc2ccc(NC(=O)CCC(=O)N3CCCCCC3)cc12	inconclusive: 16%
O=C(NCCc1ccccc1)C(=O)NCC1OCCc2ccccc21 (configuration not stated)	inactive
O=C1NCCN(C(=O)c2ccc(-n3cccc3)cc2)C1Cc1ccccc1 (configuration not stated)	inconclusive: 26%
C(=C\c1ccco1)/CN1CCC(Cc2noc(C3CC3)n2)CC1	inconclusive: 14%
CCNC(=O)N1CC[C@H](c2nc3ccc(OC)cc3[nH]2)C1	inactive
CCc1ccc2[nH]cc(C(=O)c3ccc(C)c(C)c3)c(=O)c2c1	inconclusive: 11%
Cc1cc2nnc(SCC(=O)NCc3ccc4c(c3)OCO4)n2c2ccccc12	inactive
CCc1ccc(S(=O)(=O)NCc2nc3cccnc3n2Cc2ccccc2OC)cc1	inconclusive: 15%
O=C(CN1C(=O)C2CCCCN2C(=O)c2ccccc21)N1CCN(c2ccc(F)cc2)CC1 (configuration not stated)	inconclusive: 11%
Cc1nnc(SCC2=C(C(=O)O)N3C(=O)[C@@H](NC(=O)Cn4cnnn4)[C@H]3SC2)s1	inconclusive: 19%
O=[N+]([O-])c1cccc(C(=Nc2ccccc2)NO)c1	inactive
O=C(NCCS(=O)(=O)N1CCCC1)c1cnn2c1CCCC2	inconclusive: 23%
CCC(=O)Nc1cccc(C(=O)N2CCn3cccc3C2CC)c1 (configuration not stated)	inactive
Cc1ccc(C2C(C#N)=C(N)SC(N)=C2C#N)s1	inconclusive: 16%
COCCCN1C(=O)N(Cc2ccccn2)C(=O)C12CCN(Cc1cc3ccccc3s1)CC2	inconclusive: 27%
Nc1cc(C(=O)O)ccc1Nc1ccccc1	inconclusive: 25%
O=C(NCc1ccco1)c1cc(=O)[nH]c2ccc(S(=O)(=O)N3CCCC3)cc12	inactive
